Record: PubChem BioAssay AID1259425 (University of Nebraska Medical Center, 2018)

- Test: 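Compare each knockdown with KSR1 silencing using changes in marker transcripts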 (primary screen)
- Cells: HCT116 human colon cancer cells
- Knock-down reagent: siRNA pool against human genes, 50 nM siRNA
- Measured: 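After 50 nM siRNA pool, branched-DNA assay measures six marker transcripts per well, minus blank, normalised to the geometric mean of two housekeeping transcripts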
- Direction: BNIP3L mRNA: higher = more BNIP3L transcript after knockdown; NDRG1 mRNA: higher = more NDRG1 transcript after knockdown; BNIP3 mRNA: higher = more BNIP3 transcript after knockdown; ALDOC mRNA: higher = more ALDOC transcript after knockdown; ACSL5 mRNA: higher = more ACSL5 transcript after knockdown
The deposit covers about 14,000 reagents; shown is a part drawn at random. Reagent sequences are not shown. Not stated in the record: the time to read-out.

| Target gene | BNIP3L mRNA, set 1 | NDRG1 mRNA, set 1 | BNIP3 mRNA, set 1 | ALDOC mRNA, set 1 | ACSL5 mRNA, set 1 |
| --- | --- | --- | --- | --- | --- |
| GTF2B (general transcription factor IIB) | 0.167 | 0.187 | 0.478 | 0.035 | 0.245 |
| IRF6 (interferon regulatory factor 6) | 0.09 | 0.0938 | 0.211 | 0.0111 | 0.123 |
| PDE8A (phosphodiesterase 8A) | 0.0405 | 0.282 | 0.439 | 0.0344 | 0.175 |
| CACTIN (cactin, spliceosome C complex subunit) | 0.0815 | 0.0477 | 0.31 | 0.024 | 0.149 |
| VPS41 (VPS41 subunit of HOPS complex) | 0.142 | 0.255 | 0.479 | 0.0422 | 0.181 |
| CPAMD8 (C3 and PZP like alpha-2-macroglobulin domain containing 8) | 0.174 | 0.95 | 0.36 | 0.0208 | 0.292 |
| IGFBP2 (insulin like growth factor binding protein 2) | 0.0781 | 0.226 | 0.273 | 0.0107 | 0.143 |
| MUC6 (mucin 6, oligomeric mucus/gel-forming (gene/pseudogene)) | 0.287 | 0.465 | 0.731 | 0.035 | 0.376 |
| ARL17A (ARF like GTPase 17A) | 0.0996 | 0.168 | 0.474 | 0.107 | 0.204 |
| MME (membrane metalloendopeptidase) | 0.147 | 0.163 | 0.364 | 0.0294 | 0.127 |
| TJP1 (tight junction protein 1) | 0.069 | 0.235 | 0.227 | 0.045 | 0.156 |
| DAZAP2 (DAZ associated protein 2) | 0.108 | 0.0915 | 0.219 | 0.0274 | 0.131 |

Continued; the last 2 above are carried over.
| Target gene | BNIP3L mRNA, set 1 | NDRG1 mRNA, set 1 | BNIP3 mRNA, set 1 | ALDOC mRNA, set 1 | ACSL5 mRNA, set 1 |
| --- | --- | --- | --- | --- | --- |
| TJP1 (tight junction protein 1) | 0.069 | 0.235 | 0.227 | 0.045 | 0.156 |
| DAZAP2 (DAZ associated protein 2) | 0.108 | 0.0915 | 0.219 | 0.0274 | 0.131 |
| VPS35L (VPS35 endosomal protein sorting factor like) | 0.0868 | 0.24 | 0.453 | 0.054 | 0.214 |
| MT4 (metallothionein 4) | 0.102 | 0.109 | 0.231 | 0.023 | 0.0851 |
| PARL (presenilin associated rhomboid like) | 0.0709 | 0.0776 | 0.315 | 0.021 | 0.248 |
| CYRIA (CYFIP related Rac1 interactor A) | 0.21 | 0.173 | 0.364 | 0.0669 | 0.175 |
| CYP2A6 (cytochrome P450 family 2 subfamily A member 6) | 0.108 | 0.138 | 0.296 | 0.0145 | 0.152 |
| ARHGEF28 (Rho guanine nucleotide exchange factor 28) | 0.159 | 0.177 | 0.262 | 0.0505 | 0.12 |
| IL15RA (interleukin 15 receptor subunit alpha) | 0.157 | 0.129 | 0.333 | 0.0447 | 0.114 |
| TGM1 (transglutaminase 1) | 0.0815 | 0.186 | 0.317 | 0.0214 | 0.125 |
